Measurements as given in PubChem BioAssay AID1508586 (ICCB-Longwood Screening Facility, Harvard Medical School, 2020).
The list shows a part of the results.

Experiment: survival rescue of mitochondrial mutant cells in low glucose, primary screen, MELAS cybrids, Rieske KO mouse fibroblasts, CellTiter-Glo (AID 1508586);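 also: test concentration not given here; z relative to plate mean and SD of compound and empty wells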
Conditions: MELAS cybrid survival, CellTiter-Glo 48 h, Rieske KO fibroblast survival, 72 h

Compound | z-score
CN(CCCl)CCCl | -0.271
